Here are results for two molecules from PMC12442595.

The chains behind the UniProt entries cited, without tags or fusion partners.
UniProt P46937: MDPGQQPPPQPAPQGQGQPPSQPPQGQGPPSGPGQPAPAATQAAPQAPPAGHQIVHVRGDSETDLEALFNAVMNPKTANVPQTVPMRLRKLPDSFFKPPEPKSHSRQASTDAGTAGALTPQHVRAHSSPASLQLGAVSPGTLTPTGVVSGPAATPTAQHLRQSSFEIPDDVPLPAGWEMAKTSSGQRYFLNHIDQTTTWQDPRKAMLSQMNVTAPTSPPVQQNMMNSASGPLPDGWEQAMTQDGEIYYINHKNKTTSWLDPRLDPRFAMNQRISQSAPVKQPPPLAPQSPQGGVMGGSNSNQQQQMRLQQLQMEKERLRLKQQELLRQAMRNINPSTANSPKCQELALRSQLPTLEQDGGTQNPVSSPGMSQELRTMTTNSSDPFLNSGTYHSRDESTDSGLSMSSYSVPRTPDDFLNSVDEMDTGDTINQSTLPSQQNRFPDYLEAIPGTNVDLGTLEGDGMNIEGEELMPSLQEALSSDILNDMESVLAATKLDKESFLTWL

These are yes or no findings as the source states them, for the method shown. In cells and extracts the contact can be indirect. Some binding calls cover weakened binding; strength is not graded here.

The assay deals with FLAG-YAP (UniProt P46937). Nature of the assay: co-IP; HEK293T (293T) cells co-transfected with FLAG-YAP and HA-ENH or ENH fragments; YAP precipitated with anti-FLAG antibody, ENH detected by blot.

B1: ENH LIMs fragment (418-596 amino acids) (domain or fragment, UniProt Q96HC4 418-596)
chain: PMCAHCNQVIRGPFLVALGKSWHPEEFNCAHCKNTMAYIGFVEEKGALYCELCYEKFFAPECGRCQRKILGEVISALKQTWHVSCFVCVACGKPIRNNVFHLEDGEPYCETDYYALFGTICHGCEFPIEAGDMFLEALGYTWHDTCFVCSVCCESLEGQTFFSKKDKPLCKKHAHSVNF
For the molecule B1, the binding entry is “binds”.

B2: ENH PDZ fragment (1-85 amino acids) (domain or fragment, UniProt Q96HC4 1-85)
chain: MSNYSVSLVGPAPWGFRLQGGKDFNMPLTISSLKDGGKAAQANVRIGDVVLSIDGINAQGMTHLEAQNKIKGCTGSLNMTLQRAS
In the case of B2, the binding entry was “no binding”.
